Reference: patent publication US10827945B2, “Radiologically identified tumor habitats” (H. LEE MOFFITT CANCER CENTER AND RESEARCH INSTITUTE, INC., priority 2014, dated 2020)
At least one compound was matched to its structure with a doubt left.

What was measured:
[1] = tested on: relapsed and refractory STS; conditions: cited from earlier work
[2] = tested on: PDAC xenografts; experiment: Intratumoral oxygenation in PDAC xenografts; assay type: in vivo; conditions: 1 hr following 2 mmol/kg
[3] = tested on: MiaPaCa PDAC cell line; experiment: Oxygen consumption in MiaPaCa cells; assay type: cell-based; conditions: 2 mM
[4] = tested on: Su.86.86 PDAC cell line; experiment: Oxygen consumption in Su.86.86 cells; assay type: cell-based; conditions: 2 mM
[5] = tested on: MIA PaCa-2 xenografts; experiment: Survival with TH-302 therapy in MIA PaCa-2 xenografts; assay type: in vivo; conditions: added to TH-302 therapy
[6] = tested on: Hs766t PDAC cell line; experiment: Oxygen consumption in Hs766t cells; assay type: cell-based; conditions: 2 mM

Cc1ccc(Nc2nccc(N(C)c3ccc4c(C)n(C)nc4c3)n2)cc1S(N)(=O)=O [pazopanib]
increase in progression free survival [1]: 4 months

CC(=O)C(=O)O [pyruvate]
intratumoral oxygenation [2]: Decreased | oxygen consumption [3]: increases | oxygen consumption [4]: increases | survival [5]: improves survival | oxygen consumption [6]: increases
